The values that follow come from the supplement of paper PMC12889115.

In the assay the test system is Salmonella enterica serovar Typhimurium SL1344. In words: bacterial growth OD600 after 18 h with compound and polymyxin B; higher = more bacterial growth (less inhibition). The conditions noted are these: 50 µM, Mueller-Hinton broth.

This is one part of the list. These are raw signals, not scaled to a control.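 Primary screen: polymyxin B was added at a level permeabilizing Salmonella outer membranes while sparing inner membranes. DMSO wells, both with and without polymyxin B, established maximum growth. Plate-to-plate variation meant each plate was ranked on its own, and the lowest-OD600 compounds were selected as hits.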

With `O=C(c1cc(Cl)ccc1OC1CCN(C2CCCC2)CC1)N1CCCCO1`, for the setting “polymyxin B 1 µg/mL”, the “bacterial growth OD600” value came out at 0.957.

As to `CC(CNc1nncc(-c2cccc3ccccc23)n1)Oc1cccnc1` (stereo not given), the “bacterial growth OD600” value (polymyxin B 0.75 µg/mL) amounted to 0.711.

Take `COCC1CCCCN1Cc1nc(-c2ccc(OC)cc2)no1` (stereo not given): the “bacterial growth OD600” value (polymyxin B 1 µg/mL) is 0.836.

Consider `CCN1CCN(C(=O)c2ccc(N3CCC(NC(C)C45CC6CC(CC(O)(C6)C4)C5)CC3)cc2)CC1` (stereo not given), for which, under “polymyxin B 0.75 µg/mL”, the “bacterial growth OD600” value came out at 0.883.

As for `CCOC(=O)C1(Cc2ccc(Cl)cc2)CCN(C(=O)c2ccc3nccnc3c2)CC1`, the “bacterial growth OD600” value (polymyxin B 1 µg/mL) was found to be 0.003.

`COC(=O)CCC(=O)N1CCC(C2CCN(Cc3ccc(Cl)cc3)C2)CC1` (stereo not given): the “bacterial growth OD600” value (polymyxin B 0.75 µg/mL) was determined as 0.751.

Consider `Cc1c[nH]c(CN(C)C(=O)CC(c2cccc(O)c2)c2cccc(Cl)c2)n1` (stereo not given), for which, under “polymyxin B 1 µg/mL”, the “bacterial growth OD600” value amounted to 0.712.

For the molecule `CC(C)CCNC(=O)c1cn(C2CCCC2)cc(C(=O)N2CCN(C(C)C)CC2)c1=O`, where the note is “polymyxin B 0.75 µg/mL”, the “bacterial growth OD600” value worked out at 0.866.

On to `O=C(c1n[nH]c2c1CCC2)N1CCc2[nH]nc(-c3ccccc3F)c2C1`, for which, where the note is “polymyxin B 0.75 µg/mL”, the “bacterial growth OD600” value is 0.783.

Take `COc1ccccc1CN1CCCC(CN(CCN(C)C)C(=O)c2cccnc2)C1` (stereo not given): under “polymyxin B 1 µg/mL”, the “bacterial growth OD600” value stood at 1.02.

As to `CN(CCc1ccccn1)c1ccc(C(=O)N2CCCC(Cn3ccnc3)C2)cn1` (stereo not given), the “bacterial growth OD600” value (polymyxin B 0.75 µg/mL) stood at 0.857.

As to `CCCc1cc(C(=O)NCc2cccnc2N2CCCC(O)C2)n(C)n1` (stereo not given), the “bacterial growth OD600” value (polymyxin B 0.75 µg/mL) came out at 0.749.

For `CCCN(CC1CCCO1)C(=O)CC1(c2ccccc2)CC(=O)N(Cc2cccs2)C1=O` (stereo not given), under “polymyxin B 0.75 µg/mL”, the “bacterial growth OD600” value worked out at 0.79.

With `Cc1ccsc1S(=O)(=O)N1CCCC(CNS(=O)(=O)Cc2ccccc2)C1` (stereo not given), the “bacterial growth OD600” value (polymyxin B 1 µg/mL) was determined as 0.87.

As to `COC(=O)c1ccc(-c2nc(CN3CCCCC3CCn3cccn3)c(C)o2)cc1` (stereo not given), the “bacterial growth OD600” value (polymyxin B 1 µg/mL) is 0.852.

Regarding `O=C(NCc1nnc(-c2ccccc2)o1)C1CCC(=O)N(CCc2cccc(F)c2)C1` (stereo not given), for the setting “polymyxin B 1 µg/mL”, the “bacterial growth OD600” value was determined as 0.909.

`COCCC1CCCCN1C(=O)c1coc(COc2ccc(F)cc2)n1` (stereo not given): under “polymyxin B 1 µg/mL”, the “bacterial growth OD600” value was 0.964.

Turning to `CCn1ccnc1CN1CCCC(CNS(=O)(=O)Cc2ccccc2)C1` (stereo not given), the “bacterial growth OD600” value (polymyxin B 0.75 µg/mL) stood at 0.782.

Turning to `CCN(CC1CCCN(CCc2cccc(F)c2)C1)C(=O)Cn1ccnc1` (stereo not given), for the setting “polymyxin B 0.75 µg/mL”, the “bacterial growth OD600” value came out at 0.967.

In the case of `CCCn1c(C)c(CC(=O)N(CC)CC)c2c1CC(C)(C)CC2=O`, the “bacterial growth OD600” value (polymyxin B 0.75 µg/mL) came out at 0.904.

Take `CSCC(=O)NC1CC(C)(C)Cc2nc(N3CCOCC3)ncc21` (stereo not given): the “bacterial growth OD600” value (polymyxin B 0.75 µg/mL) was found to be 0.867.

On to `CCN(CC1CCN(CCc2ccccc2C)CC1)C(=O)c1ccoc1C`, for which, for the setting “polymyxin B 1 µg/mL”, the “bacterial growth OD600” value was found to be 1.19.

Regarding `Cc1[nH]c2ccc(C(=O)N3CCC(C(Cc4ccc(F)cc4F)N(C)C(=O)C4CC4)CC3)cc2c1C` (stereo not given), where the note is “polymyxin B 0.75 µg/mL”, the “bacterial growth OD600” value is 0.006.

Consider `CCN1CCN(C2(C(=O)NC(C)Cc3cnccn3)Cc3ccccc3C2)CC1` (stereo not given), for which the “bacterial growth OD600” value (polymyxin B 0.75 µg/mL) is 0.877.

For `Clc1ccc(N2CCC(NC3COc4ccccc4C3)CC2)cc1` (stereo not given), the “bacterial growth OD600” value (polymyxin B 1 µg/mL) came to 1.06.

Regarding `CC(C)C[C@H](NC(=O)C1(N2C[C@@H](C)O[C@@H](C)C2)Cc2ccccc2C1)C(N)=O`, the “bacterial growth OD600” value (polymyxin B 0.75 µg/mL) came to 0.736.

For `COCCNC(=O)c1ccc(OC)cc1OC1CCN(CC2CCOC(C)(C)C2)CC1` (stereo not given), the “bacterial growth OD600” value (polymyxin B 1 µg/mL) stood at 0.965.

As to `Cc1nc2ccccc2n1Cc1cc(C(=O)NC2CCCC2)no1`, the “bacterial growth OD600” value (polymyxin B 0.75 µg/mL) was 0.726.

Regarding `COc1ccc(-c2nn(-c3ccccc3)cc2CN2CCOCC2)c(F)c1`, the “bacterial growth OD600” value (polymyxin B 1 µg/mL) was determined as 0.745.

As to `CCn1ncc(CN2CCCC2C(=O)Nc2ccc(-c3cscn3)cc2)c1C` (stereo not given), the “bacterial growth OD600” value (polymyxin B 0.75 µg/mL) is 0.856.
